PubChem BioAssay AID1508597, Cure First | 2020

- Purpose: 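Genes whose silencing sensitises or protects ovarian cancer cells against rucaparib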 (primary screen)
- Cells: human ovarian carcinoma lines grown from tumours: OCI-P5x (papillary serous) and OCI-C5x (clear cell)
- Knock-down reagent: siRNA pool against human genes, 1.25 pmol siRNA per well
- Time to read-out: 72 h or 96 h, depending on the cell culture
- Treatment: rucaparib 20 µM (about IC30) or vehicle, present until read-out
- Rucaparib or vehicle: Rucaparib
- Cell line: OCI-P5x (serous)
- Measurement: 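ATP luminescence measured at 72 or 96 h according to the culture, then normalised and expressed as percent viability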
- Direction: viability, normalised: higher = more viable cells remaining
- Hit rule: 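Active when normalised viability falls below 80 percent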
- Meaning of the calls: active = viability under 80%; inactive = viability 80% or more
Shown is an unselected part of the about 2,100 reagents, in one setting of the screen. 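Calls flag viability under 80% in either arm, not effects specific to rucaparib; the reference for percent is not stated.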 Some reagents were tested in more than one well and are listed for each. No sequences are given here. Not stated in the record: the 100% reference.

| Gene | technical replicate | viability, normalised (%) | activity call |
| --- | --- | --- | --- |
| PDE1C (phosphodiesterase 1C) | 1 | 56.7 | active |
| PDE1C (phosphodiesterase 1C) | 2 | 44.5 | active |
| PDE1C (phosphodiesterase 1C) | 3 | 49.1 | active |
| TEX14 (testis expressed 14, intercellular bridge forming factor) | 1 | 96.6 | inactive |
| TEX14 (testis expressed 14, intercellular bridge forming factor) | 2 | 92.3 | inactive |
| TEX14 (testis expressed 14, intercellular bridge forming factor) | 3 | 86.7 | inactive |
| CSNK1E (casein kinase 1 epsilon) | 1 | 83.4 | inactive |
| CSNK1E (casein kinase 1 epsilon) | 1 | 101 | inactive |
| CSNK1E (casein kinase 1 epsilon) | 1 | 85.3 | inactive |
| CSNK1E (casein kinase 1 epsilon) | 2 | 96 | inactive |
| CSNK1E (casein kinase 1 epsilon) | 2 | 88 | inactive |
| CSNK1E (casein kinase 1 epsilon) | 2 | 96.4 | inactive |
| CSNK1E (casein kinase 1 epsilon) | 3 | 88.5 | inactive |
| CSNK1E (casein kinase 1 epsilon) | 3 | 93.5 | inactive |
| CSNK1E (casein kinase 1 epsilon) | 3 | 95.1 | inactive |
| EED (embryonic ectoderm development) | 1 | 34.3 | active |
| EED (embryonic ectoderm development) | 2 | 23.4 | active |
| EED (embryonic ectoderm development) | 3 | 35 | active |
| PLG (plasminogen) | 1 | 60.5 | active |
| PLG (plasminogen) | 2 | 52.9 | active |
| PLG (plasminogen) | 3 | 59.5 | active |
| INTS12 (integrator complex subunit 12) | 1 | 84.8 | inactive |
| INTS12 (integrator complex subunit 12) | 2 | 68.3 | active |
| INTS12 (integrator complex subunit 12) | 3 | 79.9 | active |
| MAP3K8 (mitogen-activated protein kinase kinase kinase 8) | 1 | 102 | inactive |
| MAP3K8 (mitogen-activated protein kinase kinase kinase 8) | 2 | 88.7 | inactive |
| MAP3K8 (mitogen-activated protein kinase kinase kinase 8) | 3 | 86.1 | inactive |
| ONECUT1 (one cut homeobox 1) | 1 | 38.9 | active |
| ONECUT1 (one cut homeobox 1) | 2 | 50.7 | active |
| ONECUT1 (one cut homeobox 1) | 3 | 40.3 | active |
| FOXA2 (forkhead box A2) | 1 | 54.3 | active |
| FOXA2 (forkhead box A2) | 2 | 56.5 | active |
| FOXA2 (forkhead box A2) | 3 | 67.7 | active |

Next part; the last 8 above are carried over.
| Gene | technical replicate | viability, normalised (%) | activity call |
| --- | --- | --- | --- |
| MAP3K8 (mitogen-activated protein kinase kinase kinase 8) | 2 | 88.7 | inactive |
| MAP3K8 (mitogen-activated protein kinase kinase kinase 8) | 3 | 86.1 | inactive |
| ONECUT1 (one cut homeobox 1) | 1 | 38.9 | active |
| ONECUT1 (one cut homeobox 1) | 2 | 50.7 | active |
| ONECUT1 (one cut homeobox 1) | 3 | 40.3 | active |
| FOXA2 (forkhead box A2) | 1 | 54.3 | active |
| FOXA2 (forkhead box A2) | 2 | 56.5 | active |
| FOXA2 (forkhead box A2) | 3 | 67.7 | active |
| CAMK2B (calcium/calmodulin dependent protein kinase II beta) | 1 | 81.3 | inactive |
| CAMK2B (calcium/calmodulin dependent protein kinase II beta) | 2 | 74.6 | active |
| CAMK2B (calcium/calmodulin dependent protein kinase II beta) | 3 | 68.5 | active |
| CAMK2D (calcium/calmodulin dependent protein kinase II delta) | 1 | 89.8 | inactive |
| CAMK2D (calcium/calmodulin dependent protein kinase II delta) | 1 | 68.8 | active |
| CAMK2D (calcium/calmodulin dependent protein kinase II delta) | 2 | 78.2 | active |
| CAMK2D (calcium/calmodulin dependent protein kinase II delta) | 2 | 76.9 | active |
| CAMK2D (calcium/calmodulin dependent protein kinase II delta) | 3 | 56.9 | active |
| CAMK2D (calcium/calmodulin dependent protein kinase II delta) | 3 | 73.1 | active |
| RAD17 (RAD17 checkpoint clamp loader component) | 1 | 76.3 | active |
| RAD17 (RAD17 checkpoint clamp loader component) | 2 | 63.2 | active |
| RAD17 (RAD17 checkpoint clamp loader component) | 3 | 64.5 | active |
| FNTB (farnesyltransferase, CAAX box, subunit beta) | 1 | 49.8 | active |
| FNTB (farnesyltransferase, CAAX box, subunit beta) | 2 | 48.7 | active |
| FNTB (farnesyltransferase, CAAX box, subunit beta) | 3 | 51.5 | active |
| BID (BH3 interacting domain death agonist) | 1 | 51.1 | active |
| BID (BH3 interacting domain death agonist) | 2 | 63.8 | active |
| BID (BH3 interacting domain death agonist) | 3 | 60.1 | active |
| GCK (glucokinase) | 1 | 105 | inactive |
| GCK (glucokinase) | 2 | 99.3 | inactive |
| GCK (glucokinase) | 3 | 102 | inactive |
| HHEX (hematopoietically expressed homeobox) | 1 | 76.8 | active |
| HHEX (hematopoietically expressed homeobox) | 2 | 70.8 | active |
| HHEX (hematopoietically expressed homeobox) | 3 | 78.6 | active |
